Consider one molecule from patent US12121500B2, “Inhibitors of Bunyaviridae and uses thereof” (priority 2020, dated 2024).

A value given as a limit tells only on which side of the number the result lay.

This assay has as its system RVFV strain MP12. In words: microbe, parasite or virus in culture. It counts as cell-based. The conditions noted are these: Rift Valley fever virus, Vero, read-out: Estimated EC50.

As usually defined, the EC50 is the concentration needed to bring the measured effect to its halfway point. Take `Cc1c2cc(O)c(=O)cc-2oc2cc(O)c(O)cc12` [Compound 8, reference compound]: the EC50 was no less than 120 µM.
